For the experiment, the target named is MAVS, mitochondrial antiviral-signaling protein (endogenous) (human (endogenous in THP-1 and HEK293T)) (UniProt Q7Z434). Kind of experiment: co-IP; endogenous MAVS immunoprecipitated with anti-MAVS antibody (anti-IgG as control) and protein A/G magnetic beads from RIPA lysate of PMA-differentiated THP-1 macrophages, 4 °C; ZDHHC7 detected by immunoblot. A general note: In western blotting, separated proteins are transferred to a membrane and probed.

Sequences of proteins named here, by UniProt entry; tags and fusion partners are left off.
UniProt Q7Z434: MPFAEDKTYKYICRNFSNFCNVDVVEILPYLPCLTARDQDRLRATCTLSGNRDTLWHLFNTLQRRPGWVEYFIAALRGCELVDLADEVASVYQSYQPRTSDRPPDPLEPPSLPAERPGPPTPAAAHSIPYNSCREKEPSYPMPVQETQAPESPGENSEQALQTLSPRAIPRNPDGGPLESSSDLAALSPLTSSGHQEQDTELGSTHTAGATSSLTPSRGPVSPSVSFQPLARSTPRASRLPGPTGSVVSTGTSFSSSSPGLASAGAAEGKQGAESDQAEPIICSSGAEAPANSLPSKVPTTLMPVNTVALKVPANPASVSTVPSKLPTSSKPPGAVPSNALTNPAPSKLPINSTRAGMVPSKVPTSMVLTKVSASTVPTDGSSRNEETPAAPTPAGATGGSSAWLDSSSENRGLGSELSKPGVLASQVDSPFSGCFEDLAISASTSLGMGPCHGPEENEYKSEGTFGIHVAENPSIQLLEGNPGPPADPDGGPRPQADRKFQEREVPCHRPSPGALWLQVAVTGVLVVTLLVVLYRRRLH

No constants are given. Whether binding was seen depends on the method and setting. In cells and extracts the contact can be indirect. Some binding calls cover weakened binding; strength is not graded here.

B1: ZDHHC7 (endogenous) (enzyme, UniProt Q9NXF8 1-308)
chain: MQPSGHRLRDVEHHPLLAENDNYDSSSSSSSEADVADRVWFIRDGCGMICAVMTWLLVAYADFVVTFVMLLPSKDFWYSVVNGVIFNCLAVLALSSHLRTMLTDPGAVPKGNATKEYMESLQLKPGEVIYKCPKCCCIKPERAHHCSICKRCIRKMDHHCPWVNNCVGEKNQRFFVLFTMYIALSSVHALILCGFQFISCVRGQWTECSDFSPPITVILLIFLCLEGLLFFTFTAVMFGTQIHSICNDETEIERLKSEKPTWERRLRWEGMKSVFGGPPSLLWMNPFVGFRFRRLPTRPRKGGPEFSV
B1: the binding result was “binds”.

Source of the values: paper PMC11348129.
